Percent effect of library compounds

Sequences of proteins named here, by UniProt entry; tags and fusion partners are left off. Residues count along the entry.
UniProt I6X8D2, whole entry: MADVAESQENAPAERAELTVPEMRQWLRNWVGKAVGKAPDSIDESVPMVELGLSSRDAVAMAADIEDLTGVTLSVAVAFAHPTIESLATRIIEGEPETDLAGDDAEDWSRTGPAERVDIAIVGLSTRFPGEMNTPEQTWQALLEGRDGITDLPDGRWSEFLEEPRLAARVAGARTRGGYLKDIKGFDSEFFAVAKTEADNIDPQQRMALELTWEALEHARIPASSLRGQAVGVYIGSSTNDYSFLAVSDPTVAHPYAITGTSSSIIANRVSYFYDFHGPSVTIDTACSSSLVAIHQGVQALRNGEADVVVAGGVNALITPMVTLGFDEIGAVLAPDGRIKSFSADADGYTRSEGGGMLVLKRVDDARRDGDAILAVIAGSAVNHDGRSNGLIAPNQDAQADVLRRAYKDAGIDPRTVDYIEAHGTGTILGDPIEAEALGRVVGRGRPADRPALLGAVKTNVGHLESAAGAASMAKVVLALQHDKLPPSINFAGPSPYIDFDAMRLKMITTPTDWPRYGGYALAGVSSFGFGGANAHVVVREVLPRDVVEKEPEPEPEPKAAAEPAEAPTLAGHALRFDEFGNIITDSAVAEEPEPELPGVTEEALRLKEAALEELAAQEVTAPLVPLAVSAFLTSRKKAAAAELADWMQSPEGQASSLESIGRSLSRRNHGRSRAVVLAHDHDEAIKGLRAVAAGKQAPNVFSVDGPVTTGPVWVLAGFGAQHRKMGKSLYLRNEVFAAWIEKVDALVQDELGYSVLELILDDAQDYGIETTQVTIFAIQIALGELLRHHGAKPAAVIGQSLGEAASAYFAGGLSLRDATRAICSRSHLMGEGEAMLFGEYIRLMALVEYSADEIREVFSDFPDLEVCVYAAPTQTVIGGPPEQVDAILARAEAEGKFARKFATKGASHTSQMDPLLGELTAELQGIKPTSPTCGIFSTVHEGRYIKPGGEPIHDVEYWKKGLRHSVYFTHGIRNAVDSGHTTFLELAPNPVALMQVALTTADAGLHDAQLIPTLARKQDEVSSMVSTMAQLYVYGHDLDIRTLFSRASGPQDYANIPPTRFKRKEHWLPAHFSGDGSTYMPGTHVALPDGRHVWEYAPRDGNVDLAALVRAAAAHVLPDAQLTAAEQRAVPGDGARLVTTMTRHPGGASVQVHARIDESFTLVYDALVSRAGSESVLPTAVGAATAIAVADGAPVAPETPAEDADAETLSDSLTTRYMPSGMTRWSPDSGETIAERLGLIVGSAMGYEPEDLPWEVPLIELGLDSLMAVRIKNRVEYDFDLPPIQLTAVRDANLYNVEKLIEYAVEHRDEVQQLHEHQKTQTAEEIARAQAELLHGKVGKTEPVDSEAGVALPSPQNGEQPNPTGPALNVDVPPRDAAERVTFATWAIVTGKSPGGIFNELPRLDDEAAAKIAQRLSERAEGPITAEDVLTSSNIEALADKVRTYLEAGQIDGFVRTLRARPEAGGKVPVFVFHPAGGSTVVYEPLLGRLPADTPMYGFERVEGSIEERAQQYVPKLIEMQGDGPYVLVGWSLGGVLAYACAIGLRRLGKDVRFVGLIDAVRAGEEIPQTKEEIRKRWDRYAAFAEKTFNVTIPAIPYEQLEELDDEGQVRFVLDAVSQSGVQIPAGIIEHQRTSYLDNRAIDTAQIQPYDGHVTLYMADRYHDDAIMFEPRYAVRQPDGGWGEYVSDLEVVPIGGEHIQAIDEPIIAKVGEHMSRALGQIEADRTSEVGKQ
UniProt Q4DA54, 1-478: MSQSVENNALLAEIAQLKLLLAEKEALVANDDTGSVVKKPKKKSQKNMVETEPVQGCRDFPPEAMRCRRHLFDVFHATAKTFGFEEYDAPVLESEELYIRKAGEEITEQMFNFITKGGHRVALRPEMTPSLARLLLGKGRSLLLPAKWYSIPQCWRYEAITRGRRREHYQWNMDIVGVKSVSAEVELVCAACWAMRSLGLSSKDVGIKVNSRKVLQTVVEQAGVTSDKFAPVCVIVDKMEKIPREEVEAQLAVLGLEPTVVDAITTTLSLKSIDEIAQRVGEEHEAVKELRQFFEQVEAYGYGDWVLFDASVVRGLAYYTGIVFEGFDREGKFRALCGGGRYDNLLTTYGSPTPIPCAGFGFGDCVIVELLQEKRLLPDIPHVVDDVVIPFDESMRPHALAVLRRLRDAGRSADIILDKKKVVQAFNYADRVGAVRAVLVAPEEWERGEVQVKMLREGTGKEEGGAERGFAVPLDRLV
UniProt A4I591, 1-473: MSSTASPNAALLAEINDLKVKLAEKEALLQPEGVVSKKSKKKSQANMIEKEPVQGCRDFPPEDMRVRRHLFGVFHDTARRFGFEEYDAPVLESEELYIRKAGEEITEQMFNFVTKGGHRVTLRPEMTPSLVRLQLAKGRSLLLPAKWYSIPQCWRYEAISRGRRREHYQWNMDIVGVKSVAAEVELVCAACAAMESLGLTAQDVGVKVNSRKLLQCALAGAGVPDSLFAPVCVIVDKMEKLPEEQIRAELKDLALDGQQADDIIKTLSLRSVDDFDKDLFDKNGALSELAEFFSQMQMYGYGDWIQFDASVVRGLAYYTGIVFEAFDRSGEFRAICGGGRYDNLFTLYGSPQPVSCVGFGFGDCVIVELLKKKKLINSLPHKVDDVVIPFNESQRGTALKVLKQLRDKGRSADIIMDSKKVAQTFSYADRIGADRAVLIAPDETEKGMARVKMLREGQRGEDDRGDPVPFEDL

Source: ChEMBL document CHEMBL3988442, “University of Dundee, Small-Polar-MMV Screening Library” (2021).

Pks13 thioesterase: 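Enzyme assay of the thioesterase domain of polyketide synthase 13; the read-out is not stated. Target: Polyketide synthase Pks13, Mycobacterium tuberculosis (UniProt I6X8D2). Compounds at 30 µM. The record gives no direction; the compounds picked for IC50 retests had high values, so higher reads as stronger inhibition. About 67,000 compounds were tested under these conditions; 0.46% (about 300) showed 50% or more at least once.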
TcHisRS: 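Enzyme assay of histidyl-tRNA synthetase; the read-out is not stated. Target: Histidine-tRNA ligase, Trypanosoma cruzi CL Brener (UniProt Q4DA54). Compounds at 30 µM. The record gives no direction; compounds that gave an IC50 in retests scored well above the rest, so higher reads as stronger inhibition. Of about 69,000 compounds tested this way, about 31 (0.045%) reached 50% or more in at least one test.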
LiHisRS: 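Histidine-tRNA ligase, Leishmania infantum (UniProt A4I591). Enzyme assay of histidyl-tRNA synthetase; the read-out is not stated. Tested at 30 µM. Direction is inferred from retests: higher values go with stronger inhibition. The assay is labelled LdHisRS but filed under L. infantum. Size under these conditions: about 69,000 compounds, about 410 of them at 50% or above in at least one test.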

Each number is a percent effect as filed.
How 0% and 100% were set is not recorded. Most values in the screen are low, and negative values occur.
The compounds are a random part of those screened.
A dash means the value is not listed here; it may have been measured.

| # | SMILES | Pks13 thioesterase | TcHisRS | LiHisRS |
|---|---|---|---|---|
| 1 | `Cc1ccc2c(c1)c(CNC(=O)C1CC(=O)N(C3CCCC3)C1)nn2C` (stereo not shown) | -29.6% | 0.8333% | 3.846% |
| 2 | `CC1CN(C)c2ccccc2CN1C(=O)CSc1ccncc1` (stereo not shown) | -53.61% | -0.8264% | 23.08% |
| 3 | `CN(C(=O)Cc1ccc2c(c1)OCCO2)C1CCCCC1` | -15.14% | 2.5% | 7.547% |
| 4 | `Cc1cc(N2CCCC2c2nnc3n2CCCCC3)nc(C)n1` (stereo not shown) | -9.564% | 11% | 4.348% |
| 5 | `N#Cc1cccc(CNC(=O)NC2CCN(CC(F)F)CC2)c1` | 1.127% | -3.488% | 18.03% |
| 6 | `CC(=O)N1CCC1c1cc(N2CC(O)C2)nc(C)n1` (stereo not shown) | 4.748% | 3.03% | 4.348% |
| 7 | `Cc1cc(C(=O)N2CCN(c3ccncc3Cl)CC2)n(C)n1` | -5.248% | 7% | 16.33% |
| 8 | `CCCC(C)C(=O)N1CCC(c2cc(N3CCOCC3)nc(C)n2)CC1` (stereo not shown) | -10.23% | 7.143% | 16.67% |
| 9 | `O=C(CCOc1ccc(Cl)cc1)NCCCn1cccn1` | -9.26% | 7.035% | 12.94% |
| 10 | `Cn1ccnc1-c1cccc(NC(=O)NCCCN2CCOCC2)c1` | -10.41% | 5.291% | 9.091% |
| 11 | `CC(C)C(=O)N1CCCC12CCCN(C(=O)c1ccno1)C2` (stereo not shown) | 15.08% | 6.897% | 2.632% |
| 12 | `CCOc1ccc(C(=O)CCC(=O)N(C)Cc2noc(C)n2)cc1C` | 7.484% | 6.077% | 12.05% |
| 13 | `O=C(O)c1cc(S(=O)(=O)Nc2cccc3c2OCCO3)ccc1F` | 12.22% | -7.975% | 12.35% |
| 14 | `Cc1ccc(Oc2ncccc2CNC2CCSCC2)cn1` | -22.01% | 3.488% | 1.639% |
| 15 | `Cn1cc(CN2CCc3nc4ccccc4c(=O)n3CC2)cn1` | 2.4% | 3.143% | 8.054% |
| 16 | `CC(NCC(=O)N1CCc2sccc2C1)c1ccccc1F` (stereo not shown) | -7.35% | 7.463% | 13.25% |
| 17 | `COC(=O)c1ccc(OCCn2cnc(C#N)n2)cc1` | -7.664% | 3.867% | 3.109% |
| 18 | `Cc1nc(CN2CCCC(Cn3cc(CCO)nn3)C2)c[nH]1` (stereo not shown) | -29.58% | 1.667% | 9.615% |
| 19 | `Cc1cnn(CC2CCN(CC(O)COc3ccc(F)cc3)CC2)c1` (stereo not shown) | -10.96% | 4.943% | -6.25% |
| 20 | `Cc1ccccc1N1CCCN(C(=O)CCc2ccncc2)CC1` | -25.57% | 4.348% | 18.18% |
| 21 | `COc1cc(N2CCC3(CC2)CN(S(C)(=O)=O)c2ccccc23)ncn1` | 9.598% | 18.44% | 23.08% |
| 22 | `Cc1nc2ccc(C(=O)N3CCn4c(C)nnc4C3)cc2nc1C` | -16.64% | 2.232% | 20.99% |
| 23 | `O=C(Cn1cnnn1)N1CCCCC1Cn1cccn1` (stereo not shown) | -20.6% | 3.008% | -5.618% |
| 24 | `CC(C)[C@@H]1CN(Cc2ccccc2C#N)C[C@H]1C(=O)O` | -2.377% | 6.329% | 6.25% |
| 25 | `CCS(=O)(=O)N1CCc2nc(C3CCN(C(=O)C4CC4)C3)nc(O)c2C1` (stereo not shown) | 5.545% | 13.83% | 19.79% |
| 26 | `COc1cc(Br)c(CNC2CCCNC2=O)cc1OC` (stereo not shown) | -10.23% | 3.061% | 11.43% |
| 27 | `Cc1c(C(C)NC(=O)N2CCN(C3CCCC3)CC2)cnn1C` (stereo not shown) | 28.68% | -4.386% | 7.143% |
| 28 | `COc1cccc(CN(C)C(C)c2nccs2)c1OCCn1ccnc1` (stereo not shown) | -82.92% | 5.882% | 6.806% |
| 29 | `COc1ccc(CCN2CCCC(CN(C)Cc3ccc(C)o3)C2)cc1` (stereo not shown) | -1.248% | 5.932% | 18.87% |
| 30 | `Cc1nnc2n1CCN(C(=O)CN1C(=O)CCCc3ccccc31)C2` | -3.123% | 5.759% | -1.724% |
| 31 | `COc1cc(C(=O)N2CCCC2c2noc(C(C)C)n2)on1` (stereo not shown) | -2.485% | 3.79% | 7.339% |
| 32 | `CN1CCN(S(=O)(=O)c2ccc(Cl)c(Cl)c2)c2cnccc21` | - | 10.88% | 19.35% |
| 33 | `Cc1cc(CC(=O)NCC(O)c2ccc(OC(F)F)cc2)n[nH]1` (stereo not shown) | -1.157% | -4.217% | 2.198% |
| 34 | `Cc1occc1C(=O)N1CCN2C[C@H](Oc3cccnc3)C[C@H]2C1` | -14.18% | -0.8% | 6.195% |
| 35 | `O=C(CS(=O)(=O)C1CCCC1)NC1CCCc2cc(OC(F)F)ccc21` (stereo not shown) | -27.72% | 4.444% | 14.53% |
| 36 | `O=C(NCC1(O)CCSCC1)c1ccoc1` | -25.78% | 3.191% | 18.75% |
| 37 | `CNC(=O)Cn1cc(Nc2cccc(F)c2C#N)cn1` | 6.835% | -3.067% | 19.75% |
| 38 | `CC(C)N1C(=O)CC(N2CCN(c3ccc(F)cc3)CC2)C1=O` (stereo not shown) | 6.719% | -4.969% | 12.5% |
| 39 | `COc1cccc(OCCc2cncc(C(N)=O)c2)c1` | -19.95% | 8.696% | 25% |
| 40 | `Cc1cnn(CCC(=O)N2CCCN(c3cccnn3)CC2)c1` | 2.585% | 1.88% | 5.405% |
| 41 | `CCN(CC)CCn1cnc(-c2ccccc2)c1-c1cnc(C)s1` | -11.93% | -1.932% | 17.5% |
| 42 | `Cc1ccc(CN2CCC3(CC2)CN(c2ccccc2)C(=O)CO3)o1` | -4.233% | 6.03% | 3.191% |
| 43 | `CC(C)c1cc(=O)[nH]c(-c2ccccc2CN2CCC(C)(C)C2)n1` | 0.9199% | 6.897% | 23.08% |

The first 6 entries again:

For Cc1ccc2c(c1)c(CNC(=O)C1CC(=O)N(C3CCCC3)C1)nn2C (stereo not shown) the result was Pks13 thioesterase: -29.6%; TcHisRS: 0.8333%; LiHisRS: 3.846%.
For CC1CN(C)c2ccccc2CN1C(=O)CSc1ccncc1 (stereo not shown) the result was Pks13 thioesterase: -53.61%; TcHisRS: -0.8264%; LiHisRS: 23.08%.
For CN(C(=O)Cc1ccc2c(c1)OCCO2)C1CCCCC1 the result was Pks13 thioesterase: -15.14%; TcHisRS: 2.5%; LiHisRS: 7.547%.
For Cc1cc(N2CCCC2c2nnc3n2CCCCC3)nc(C)n1 (stereo not shown) the result was Pks13 thioesterase: -9.564%; TcHisRS: 11%; LiHisRS: 4.348%.
For N#Cc1cccc(CNC(=O)NC2CCN(CC(F)F)CC2)c1 the result was Pks13 thioesterase: 1.127%; TcHisRS: -3.488%; LiHisRS: 18.03%.
For CC(=O)N1CCC1c1cc(N2CC(O)C2)nc(C)n1 (stereo not shown) the result was Pks13 thioesterase: 4.748%; TcHisRS: 3.03%; LiHisRS: 4.348%.